Source: patent US10620188B2, “Using impedance-based cell response profiling to identify putative inhibitors for oncogene addicted targets or pathways” (ACEA Biosciences, Inc., priority 2002, dated 2020)
At least one structure is not confirmed: it was looked up by name or label, or the drawing left a doubt.

Legend:
10T1/2 tva-H1047R = test: Impedance-based TCRP of 10T1/2 tva-H1047R cells expressing human p110α (H1047R); format: cell-based, mouse; settings: serum starved, from 0 to 10 uM
H1993 = test: Impedance-based TCRP of Met addicted H1993 cells (xCelligence); format: cell-based, human; settings: increasing concentrations
10T1/2 tva = test: Impedance-based TCRP of control cell line 10T1/2 tva; design: species or system mouse; settings: 10T1/2 tva control cell line; from 0 to 10 uM

Oc1c2ccccc2c2c3c(cccc13)N=N2 [SP600125]
TCRP (Cell Index response) (10T1/2 tva-H1047R): did not introduce significant cell index changes in either cell line
TCRP (Cell Index response) (H1993): None of these inhibitors induced a TCRP similar to PF2341006
TCRP (Cell Index response) (10T1/2 tva): did not introduce significant cell index changes in either cell line
